No constants are given. Whether binding was seen depends on the method and setting. In cells and extracts the contact can be indirect. A yes stands for co-enrichment or nearness to the bait. Other partners may have been found. For part of these data: Sequences can lack the tags named with a protein.
Columns and labels:
[1] = molecular target: T1, METTL16, C-terminal BirA* fusion (human) (UniProt Q86W50); test: proximity labelling; BioID: BirA*-fused bait induced with 200 ng/ml dox in stable 293T cells, 50 μM biotin for 24 h, streptavidin bead purification of biotinylated proteins, LC-MS/MS; hits filtered by Limma (>4-fold, adjusted P < 0.01) and SAINT (score >0.74) against BirA* and NLS-BirA* controls
T1 sequence: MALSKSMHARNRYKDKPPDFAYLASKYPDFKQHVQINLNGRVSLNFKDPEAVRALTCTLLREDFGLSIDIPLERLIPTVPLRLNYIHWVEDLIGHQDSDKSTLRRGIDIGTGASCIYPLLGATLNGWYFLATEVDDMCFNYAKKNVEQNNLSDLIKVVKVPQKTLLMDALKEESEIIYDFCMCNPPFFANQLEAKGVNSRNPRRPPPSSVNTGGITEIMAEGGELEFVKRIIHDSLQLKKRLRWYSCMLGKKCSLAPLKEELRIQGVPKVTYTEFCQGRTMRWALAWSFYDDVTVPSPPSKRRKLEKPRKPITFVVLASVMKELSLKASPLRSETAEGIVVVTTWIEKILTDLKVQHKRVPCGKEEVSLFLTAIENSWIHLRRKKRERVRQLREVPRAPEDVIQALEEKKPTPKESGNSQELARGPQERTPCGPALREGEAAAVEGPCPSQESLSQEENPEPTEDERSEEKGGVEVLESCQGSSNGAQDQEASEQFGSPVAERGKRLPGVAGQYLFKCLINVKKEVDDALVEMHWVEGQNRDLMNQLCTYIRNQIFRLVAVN

The chains behind the UniProt entries cited, without tags or fusion partners.
UniProt Q6P6C2: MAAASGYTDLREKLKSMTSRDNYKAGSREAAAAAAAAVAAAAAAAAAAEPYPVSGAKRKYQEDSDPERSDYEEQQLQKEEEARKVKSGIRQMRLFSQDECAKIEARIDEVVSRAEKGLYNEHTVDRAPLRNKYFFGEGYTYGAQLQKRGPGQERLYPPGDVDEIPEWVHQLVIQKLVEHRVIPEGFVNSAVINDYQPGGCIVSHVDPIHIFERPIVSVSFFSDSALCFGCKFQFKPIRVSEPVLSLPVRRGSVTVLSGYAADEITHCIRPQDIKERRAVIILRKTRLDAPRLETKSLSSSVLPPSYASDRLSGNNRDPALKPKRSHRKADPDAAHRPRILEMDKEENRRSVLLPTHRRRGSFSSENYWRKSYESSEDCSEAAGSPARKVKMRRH
UniProt Q9H4Z3: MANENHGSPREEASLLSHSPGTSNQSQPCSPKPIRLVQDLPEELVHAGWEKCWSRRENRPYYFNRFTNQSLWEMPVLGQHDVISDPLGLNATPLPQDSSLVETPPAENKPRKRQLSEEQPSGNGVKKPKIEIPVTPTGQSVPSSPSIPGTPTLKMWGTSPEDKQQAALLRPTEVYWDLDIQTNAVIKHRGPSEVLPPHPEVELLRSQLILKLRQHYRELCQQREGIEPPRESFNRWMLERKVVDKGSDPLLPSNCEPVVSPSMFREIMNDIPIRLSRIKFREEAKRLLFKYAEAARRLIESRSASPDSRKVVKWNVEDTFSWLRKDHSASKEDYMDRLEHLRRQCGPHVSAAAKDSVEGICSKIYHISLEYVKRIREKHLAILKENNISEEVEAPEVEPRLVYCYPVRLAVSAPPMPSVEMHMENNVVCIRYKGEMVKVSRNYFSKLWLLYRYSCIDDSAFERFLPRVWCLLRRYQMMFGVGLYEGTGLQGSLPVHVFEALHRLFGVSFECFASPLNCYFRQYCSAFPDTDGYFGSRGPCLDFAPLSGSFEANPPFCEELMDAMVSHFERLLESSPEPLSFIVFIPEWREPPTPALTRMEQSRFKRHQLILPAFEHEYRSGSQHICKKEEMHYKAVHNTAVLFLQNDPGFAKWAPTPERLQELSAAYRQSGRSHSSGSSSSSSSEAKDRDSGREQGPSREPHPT
UniProt Q86U44: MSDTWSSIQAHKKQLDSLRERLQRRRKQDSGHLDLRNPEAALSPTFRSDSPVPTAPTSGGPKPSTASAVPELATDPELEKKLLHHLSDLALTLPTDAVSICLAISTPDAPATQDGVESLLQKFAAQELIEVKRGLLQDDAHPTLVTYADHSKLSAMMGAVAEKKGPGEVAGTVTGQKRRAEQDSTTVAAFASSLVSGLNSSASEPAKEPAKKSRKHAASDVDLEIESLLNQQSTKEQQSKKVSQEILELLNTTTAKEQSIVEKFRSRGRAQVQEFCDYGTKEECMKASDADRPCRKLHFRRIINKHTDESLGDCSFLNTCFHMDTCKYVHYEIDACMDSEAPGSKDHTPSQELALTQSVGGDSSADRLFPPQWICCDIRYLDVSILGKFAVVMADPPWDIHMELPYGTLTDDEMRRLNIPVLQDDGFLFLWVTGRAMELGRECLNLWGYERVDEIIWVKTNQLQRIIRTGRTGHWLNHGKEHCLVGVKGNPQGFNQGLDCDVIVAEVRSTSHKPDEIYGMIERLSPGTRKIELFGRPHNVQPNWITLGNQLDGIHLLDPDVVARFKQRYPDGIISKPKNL
UniProt Q9UNQ2: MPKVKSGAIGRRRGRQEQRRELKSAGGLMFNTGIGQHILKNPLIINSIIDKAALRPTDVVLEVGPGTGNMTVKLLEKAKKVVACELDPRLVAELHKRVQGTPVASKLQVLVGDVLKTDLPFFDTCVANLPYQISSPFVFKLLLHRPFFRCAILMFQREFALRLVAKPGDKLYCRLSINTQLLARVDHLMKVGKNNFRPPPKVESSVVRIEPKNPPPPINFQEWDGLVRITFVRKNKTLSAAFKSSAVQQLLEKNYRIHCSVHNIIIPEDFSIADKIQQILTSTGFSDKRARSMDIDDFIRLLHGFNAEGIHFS
UniProt O94762: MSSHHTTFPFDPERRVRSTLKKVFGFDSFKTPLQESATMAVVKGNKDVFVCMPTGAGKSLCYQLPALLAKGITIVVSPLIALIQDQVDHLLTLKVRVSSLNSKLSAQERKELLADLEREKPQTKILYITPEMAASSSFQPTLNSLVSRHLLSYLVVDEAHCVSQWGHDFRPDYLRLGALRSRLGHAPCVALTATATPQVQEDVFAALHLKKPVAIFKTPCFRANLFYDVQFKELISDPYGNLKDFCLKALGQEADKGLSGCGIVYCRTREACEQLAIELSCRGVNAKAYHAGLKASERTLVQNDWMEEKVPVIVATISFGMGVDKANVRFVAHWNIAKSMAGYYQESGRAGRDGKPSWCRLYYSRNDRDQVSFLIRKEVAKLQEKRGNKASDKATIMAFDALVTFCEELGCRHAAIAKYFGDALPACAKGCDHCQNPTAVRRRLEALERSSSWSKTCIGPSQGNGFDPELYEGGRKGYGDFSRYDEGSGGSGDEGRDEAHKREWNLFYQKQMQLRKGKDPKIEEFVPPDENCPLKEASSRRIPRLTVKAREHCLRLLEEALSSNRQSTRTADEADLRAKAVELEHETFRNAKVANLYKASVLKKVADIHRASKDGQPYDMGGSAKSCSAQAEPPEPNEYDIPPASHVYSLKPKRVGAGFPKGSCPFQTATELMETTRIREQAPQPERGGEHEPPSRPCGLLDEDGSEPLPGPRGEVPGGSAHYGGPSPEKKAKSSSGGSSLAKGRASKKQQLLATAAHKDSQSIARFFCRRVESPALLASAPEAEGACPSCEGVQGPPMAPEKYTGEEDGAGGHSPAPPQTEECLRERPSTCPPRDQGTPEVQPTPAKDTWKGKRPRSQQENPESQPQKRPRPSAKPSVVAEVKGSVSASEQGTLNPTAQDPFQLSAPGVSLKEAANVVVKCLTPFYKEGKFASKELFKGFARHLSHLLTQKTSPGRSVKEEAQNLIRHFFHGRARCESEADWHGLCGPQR
UniProt Q96HW7: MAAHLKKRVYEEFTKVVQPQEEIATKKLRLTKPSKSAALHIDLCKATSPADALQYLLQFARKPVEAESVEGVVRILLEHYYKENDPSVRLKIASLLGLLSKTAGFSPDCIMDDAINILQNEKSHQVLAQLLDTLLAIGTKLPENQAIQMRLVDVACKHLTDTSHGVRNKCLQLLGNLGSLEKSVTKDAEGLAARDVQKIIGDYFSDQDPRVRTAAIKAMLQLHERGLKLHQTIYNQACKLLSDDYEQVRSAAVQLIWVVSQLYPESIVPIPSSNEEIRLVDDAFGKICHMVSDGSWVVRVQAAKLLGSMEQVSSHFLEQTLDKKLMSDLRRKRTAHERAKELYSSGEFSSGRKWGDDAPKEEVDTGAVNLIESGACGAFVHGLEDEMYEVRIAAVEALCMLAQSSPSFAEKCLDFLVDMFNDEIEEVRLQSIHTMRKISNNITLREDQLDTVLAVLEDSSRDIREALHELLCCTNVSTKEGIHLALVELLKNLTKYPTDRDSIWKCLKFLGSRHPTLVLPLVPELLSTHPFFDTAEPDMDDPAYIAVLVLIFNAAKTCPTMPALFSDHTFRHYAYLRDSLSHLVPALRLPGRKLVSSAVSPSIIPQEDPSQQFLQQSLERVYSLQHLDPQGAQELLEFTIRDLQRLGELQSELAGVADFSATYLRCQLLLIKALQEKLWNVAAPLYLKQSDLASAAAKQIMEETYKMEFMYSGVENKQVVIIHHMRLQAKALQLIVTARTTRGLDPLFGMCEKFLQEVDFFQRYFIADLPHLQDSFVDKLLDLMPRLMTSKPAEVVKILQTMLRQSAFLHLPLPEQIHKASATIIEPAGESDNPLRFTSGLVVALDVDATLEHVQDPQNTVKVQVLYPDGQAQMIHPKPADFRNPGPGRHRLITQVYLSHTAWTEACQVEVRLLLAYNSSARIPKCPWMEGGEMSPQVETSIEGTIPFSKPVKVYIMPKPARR
UniProt Q13601: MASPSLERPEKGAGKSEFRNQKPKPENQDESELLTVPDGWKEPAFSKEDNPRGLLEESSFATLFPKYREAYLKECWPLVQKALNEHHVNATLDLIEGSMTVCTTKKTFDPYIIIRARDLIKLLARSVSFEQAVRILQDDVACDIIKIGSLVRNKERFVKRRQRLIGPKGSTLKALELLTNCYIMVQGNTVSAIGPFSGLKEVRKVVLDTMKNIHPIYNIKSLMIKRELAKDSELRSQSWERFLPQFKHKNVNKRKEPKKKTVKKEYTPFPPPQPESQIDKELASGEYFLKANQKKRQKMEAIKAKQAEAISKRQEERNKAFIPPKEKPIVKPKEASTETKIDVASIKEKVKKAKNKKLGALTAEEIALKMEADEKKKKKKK
UniProt Q5T200: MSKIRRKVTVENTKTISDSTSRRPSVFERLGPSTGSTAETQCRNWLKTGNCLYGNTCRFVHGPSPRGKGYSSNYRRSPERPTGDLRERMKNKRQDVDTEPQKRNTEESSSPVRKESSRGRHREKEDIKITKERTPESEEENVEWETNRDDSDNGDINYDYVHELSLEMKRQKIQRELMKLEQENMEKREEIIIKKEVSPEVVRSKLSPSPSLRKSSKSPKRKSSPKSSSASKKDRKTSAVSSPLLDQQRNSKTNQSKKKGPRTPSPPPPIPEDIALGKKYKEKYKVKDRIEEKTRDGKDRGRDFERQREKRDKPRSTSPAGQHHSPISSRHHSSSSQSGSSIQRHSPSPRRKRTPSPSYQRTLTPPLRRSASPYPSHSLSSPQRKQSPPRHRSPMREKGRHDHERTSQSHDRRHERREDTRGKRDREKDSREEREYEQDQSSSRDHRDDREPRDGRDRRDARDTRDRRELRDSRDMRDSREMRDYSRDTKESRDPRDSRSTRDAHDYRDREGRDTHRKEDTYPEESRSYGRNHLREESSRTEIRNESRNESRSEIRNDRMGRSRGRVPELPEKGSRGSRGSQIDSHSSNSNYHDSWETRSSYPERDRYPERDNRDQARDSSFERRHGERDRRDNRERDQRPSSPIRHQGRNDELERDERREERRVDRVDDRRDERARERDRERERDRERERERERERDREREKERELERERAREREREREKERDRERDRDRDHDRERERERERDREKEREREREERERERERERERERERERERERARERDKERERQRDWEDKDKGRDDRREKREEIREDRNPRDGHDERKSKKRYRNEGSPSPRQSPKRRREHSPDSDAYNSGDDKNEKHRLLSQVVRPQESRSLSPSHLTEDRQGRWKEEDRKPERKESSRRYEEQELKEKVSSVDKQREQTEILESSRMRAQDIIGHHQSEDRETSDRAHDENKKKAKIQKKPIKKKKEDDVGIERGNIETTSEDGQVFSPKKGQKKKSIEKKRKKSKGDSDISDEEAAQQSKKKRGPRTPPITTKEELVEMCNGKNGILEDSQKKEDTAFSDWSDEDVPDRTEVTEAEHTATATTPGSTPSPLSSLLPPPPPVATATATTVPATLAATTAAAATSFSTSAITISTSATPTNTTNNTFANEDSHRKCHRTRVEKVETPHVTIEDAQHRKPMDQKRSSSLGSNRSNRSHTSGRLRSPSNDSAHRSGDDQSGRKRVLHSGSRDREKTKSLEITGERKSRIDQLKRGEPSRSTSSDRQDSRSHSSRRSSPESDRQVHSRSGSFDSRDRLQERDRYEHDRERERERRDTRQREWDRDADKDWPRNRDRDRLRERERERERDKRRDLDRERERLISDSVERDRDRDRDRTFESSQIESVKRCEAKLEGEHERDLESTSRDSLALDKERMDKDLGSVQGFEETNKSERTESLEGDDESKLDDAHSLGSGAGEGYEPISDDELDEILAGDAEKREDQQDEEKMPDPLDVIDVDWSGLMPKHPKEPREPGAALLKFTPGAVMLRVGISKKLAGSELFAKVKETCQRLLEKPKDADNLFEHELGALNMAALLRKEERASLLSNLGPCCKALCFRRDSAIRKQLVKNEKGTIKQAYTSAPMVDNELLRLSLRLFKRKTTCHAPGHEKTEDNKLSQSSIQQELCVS
UniProt Q9NX74: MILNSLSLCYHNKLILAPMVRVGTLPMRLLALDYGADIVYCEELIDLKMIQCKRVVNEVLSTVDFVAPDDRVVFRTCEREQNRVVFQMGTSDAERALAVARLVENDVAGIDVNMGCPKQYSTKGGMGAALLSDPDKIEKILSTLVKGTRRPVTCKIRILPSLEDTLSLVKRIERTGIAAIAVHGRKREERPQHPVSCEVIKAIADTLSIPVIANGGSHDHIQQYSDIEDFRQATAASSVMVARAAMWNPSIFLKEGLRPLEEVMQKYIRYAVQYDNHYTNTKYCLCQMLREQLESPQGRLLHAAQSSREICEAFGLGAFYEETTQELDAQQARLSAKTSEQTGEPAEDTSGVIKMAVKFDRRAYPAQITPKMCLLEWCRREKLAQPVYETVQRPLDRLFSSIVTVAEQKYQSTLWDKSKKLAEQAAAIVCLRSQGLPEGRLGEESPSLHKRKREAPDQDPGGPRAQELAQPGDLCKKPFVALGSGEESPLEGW

[2] = molecular target: ALKBH5, BirA* fusion (human) (UniProt Q6P6C2); test: as above
[3] = molecular target: MAC-PCIF1 (HA-Strep II-BirA*-PCIF1) (human) (UniProt Q9H4Z3); test: affinity purification with mass spectrometry; Strep II-tagged bait captured on StrepTactinXT beads from 293T total lysate, 4 h at 4°C, with RNase inhibitor (-RNase A) or with 2 μg/ml RNase A; washes with 350 mM KCl; LC-MS/MS; against Strep II-eGFP control
[4] = molecular target: MAC-PCIF1 (HA-Strep II-BirA*-PCIF1) (human) (UniProt Q9H4Z3); test: proximity labelling; BioID: BirA*-fused bait induced with 200 ng/ml dox in stable 293T cells, 50 μM biotin for 24 h, streptavidin bead purification of biotinylated proteins, LC-MS/MS; hits filtered by Limma (>4-fold, adjusted P < 0.01) and SAINT (score >0.74) against BirA* and NLS-BirA* controls
[5] = molecular target: FTO, N-terminal BirA* fusion (human) (UniProt Q9C0B1); test: as above
[6] = molecular target: ALKBH5-Strep II-HA (human) (UniProt Q6P6C2); test: affinity purification with mass spectrometry; Strep II-tagged bait captured on StrepTactinXT beads from 293T total lysate, 4 h at 4°C, with RNase inhibitor (-RNase A) or with 2 μg/ml RNase A; washes with 350 mM KCl; LC-MS/MS; against Strep II-eGFP control
[7] = molecular target: METTL3, C-terminal BirA* fusion (human) (UniProt Q86U44); test: proximity labelling; BioID: BirA*-fused bait induced with 200 ng/ml dox in stable 293T cells, 50 μM biotin for 24 h, streptavidin bead purification of biotinylated proteins, LC-MS/MS; hits filtered by Limma (>4-fold, adjusted P < 0.01) and SAINT (score >0.74) against BirA* and NLS-BirA* controls
[8] = molecular target: METTL3, N-terminal BirA* fusion (human) (UniProt Q86U44); test: as above

With Cyclin-T2 (from UniProt O60583 1-730) the binding [1] was “binds”.

DDX39B (from UniProt Q13838 1-428) was tested, and the binding [2] was “binds”.

With DIMT1 (from UniProt Q9UNQ2 1-313) the binding [1] was “binds”.

“DNA helicase RECQ5 (from UniProt O94762 1-991) (enzyme)” was tested, and the binding [3] was “binds” and the binding [4] was “binds”.

With GINL1A (from UniProt P0CAP2 1-368) the binding [3] was “binds”.

For HEXIM1 (from UniProt O94992 1-359), the binding [1] was “binds”.

In the case of ICE1 (from UniProt Q9Y2F5 1-2266), the binding [5] is reported as “binds” and the binding [4] is reported as “binds”.

INT4 (from UniProt Q96HW7 1-963) was tested, and the binding [4] was “binds”.

In the case of INT6 (from UniProt Q9UL03 1-887), the binding [4] is reported as “binds”.

In the case of KRR1 (from UniProt Q13601 1-381), the binding [6] is reported as “binds” and the binding [2] is reported as “binds”.

In the case of MAGOH (from UniProt P61326 1-146), the binding [6] is reported as “binds”.

MAK16 (from UniProt Q9BXY0 1-300) was tested, and the binding [6] was “binds” and the binding [2] was “binds”.

In the case of PCF11 (from UniProt O94913 1-1555), the binding [4] is reported as “binds”.

For RADX (from UniProt Q6NSI4 1-855), the binding [5] was “binds”.

In the case of RPRD2 (from UniProt Q5VT52 1-1461), the binding [4] is reported as “binds”.

For “SETD1A (from UniProt O15047 1-1707) (enzyme)”, the binding [4] was “binds”.

With “SETD1B (from UniProt Q9UPS6 1-1966) (enzyme)” the binding [4] was “binds”.

For SRSF9 (from UniProt Q13242 1-221), the binding [6] was “binds” and the binding [2] was “binds”.

For STAT5B (from UniProt P51692 1-787), the binding [7] was “binds” and the binding [8] was “binds”.

In the case of XRCC4 (from UniProt Q13426 1-336), the binding [5] is reported as “binds”.

ZC3H13 (from UniProt Q5T200 1-1668) was tested, and the binding [7] was “binds” and the binding [8] was “binds”.

With “dihydrouridine tRNA synthase DUS2L (from UniProt Q9NX74 1-493) (enzyme)” the binding [5] was “binds”.

With eIF4A3 (from UniProt P38919 1-411) the binding [6] was “binds”.

From PMC8565353
